Data on one substance can be found in article PMC7619497.

The chains behind the UniProt entries cited, without tags or fusion partners.
UniProt P20248: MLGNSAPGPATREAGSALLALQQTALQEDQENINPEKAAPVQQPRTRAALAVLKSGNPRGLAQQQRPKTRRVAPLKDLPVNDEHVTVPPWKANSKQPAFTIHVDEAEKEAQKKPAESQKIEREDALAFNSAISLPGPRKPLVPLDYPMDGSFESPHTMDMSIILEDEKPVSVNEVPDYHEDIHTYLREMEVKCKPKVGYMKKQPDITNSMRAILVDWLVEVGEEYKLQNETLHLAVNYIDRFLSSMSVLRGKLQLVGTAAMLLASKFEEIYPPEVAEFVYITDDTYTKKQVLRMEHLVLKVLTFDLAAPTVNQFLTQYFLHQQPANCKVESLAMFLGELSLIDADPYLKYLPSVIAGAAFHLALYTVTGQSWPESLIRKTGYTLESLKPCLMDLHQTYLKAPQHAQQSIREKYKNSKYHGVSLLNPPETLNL

Results are given in words; binding and its absence hold for the method and conditions named. In cells and extracts the contact can be indirect. Some entries that bind do so weakly or less than the wild type. Sequences can lack the tags named with a protein.

For this test, the target named is T1, C-terminus HA-tagged WT ASCL1 (human) (UniProt P50553).
T1 sequence: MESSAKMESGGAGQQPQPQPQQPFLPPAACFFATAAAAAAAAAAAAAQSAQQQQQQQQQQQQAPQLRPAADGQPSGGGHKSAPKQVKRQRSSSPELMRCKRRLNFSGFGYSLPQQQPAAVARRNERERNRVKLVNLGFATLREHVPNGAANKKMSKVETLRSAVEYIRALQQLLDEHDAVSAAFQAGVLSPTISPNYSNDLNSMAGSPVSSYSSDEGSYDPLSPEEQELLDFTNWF
The test is described as follows: co-IP; SK-N-BE(2)C cells expressing HA-tagged ASCL1, 1 ug/mL doxycycline 24 h; lysis in ELB buffer (160 mM NaCl, 0.1% NP-40); 600 ug lysate in IP buffer (150 mM NaCl, 50 mM HEPES pH 7.5) with HA-Trap magnetic agarose beads overnight at 4 C; blot for Cyclin A2 and HA.

Consider Cyclin A2 (from UniProt P20248 1-432), for which the binding entry was “binds”.
